{"source": "PubChem BioAssay AID720505, Drosophila RNAi Screening Center – 2013", "aim": "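Genes needed for store-operated calcium entry in fly cells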 (primary screen)", "cells": "Drosophila S2R+ cells", "knock-down reagent": "long dsRNA against Drosophila genes", "challenge": "thapsigargin (2 µM) in calcium-free buffer to empty internal stores, then 2 mM calcium added back", "read-out": "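Stores emptied by 2 µM thapsigargin without calcium, then 2 mM calcium re-added; fluo-4 fluorescence followed by FLIPR in 384-well plates, per-well averaged endpoint, raw; two screen passes, some wells retested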", "direction": "calcium signal and retest calcium signal: higher = more calcium entry after store depletion", "rule for the call": "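About 1500 genes called as lowering calcium entry, by varying amounts, judged against per-plate control wells with STIM1 as positive and Rho1 as negative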", "meaning of the calls": "active = called as lowering calcium entry; inactive = not called", "note": "In all, the deposit lists about 20,000 reagents; this is a random part of those that have a named target and a result. Of all reagents, about 2,100 (10%) were called active. 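Raw plate signals without normalisation; calls rest on control-based scores that were not deposited; replicate 2 separates called from uncalled poorly.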 The numbers tell different reagents against one gene apart. A plus sign joins genes that one reagent is predicted to hit. The record does not give: the amount of reagent, the time to read-out."}
{"gene knocked down":"l(1)sc (lethal of scute)","reagent no.":1,"calcium signal, replicate 1":62.2,"calcium signal, replicate 2":108,"activity call":"active"}
{"gene knocked down":"Rbcn-3B (Rabconnectin-3B)","reagent no.":1,"calcium signal, replicate 1":108,"calcium signal, replicate 2":155,"activity call":"inactive"}
{"gene knocked down":"CG32625","reagent no.":1,"calcium signal, replicate 1":94.8,"calcium signal, replicate 2":101,"activity call":"inactive"}
{"gene knocked down":"Muc68Ca (Mucin 68Ca)","reagent no.":1,"calcium signal, replicate 1":125,"calcium signal, replicate 2":95.2,"activity call":"inactive"}
{"gene knocked down":"Muc68Ca (Mucin 68Ca)","reagent no.":2,"calcium signal, replicate 1":89.7,"calcium signal, replicate 2":64.3,"activity call":"inactive"}
{"gene knocked down":"CG11791","reagent no.":1,"calcium signal, replicate 1":142,"calcium signal, replicate 2":188,"activity call":"inactive"}
{"gene knocked down":"CG43133","reagent no.":1,"calcium signal, replicate 1":90,"calcium signal, replicate 2":148,"activity call":"inactive"}
{"gene knocked down":"MstProx + Mst84Da","reagent no.":1,"calcium signal, replicate 1":63.4,"calcium signal, replicate 2":116,"activity call":"active"}
{"gene knocked down":"hoip (hoi-polloi)","reagent no.":1,"calcium signal, replicate 1":77.6,"calcium signal, replicate 2":84.9,"activity call":"active"}
{"gene knocked down":"CG13870","reagent no.":1,"calcium signal, replicate 1":140,"calcium signal, replicate 2":72.4,"activity call":"inactive"}
{"gene knocked down":"fra (frazzled)","reagent no.":1,"calcium signal, replicate 1":128,"calcium signal, replicate 2":237,"activity call":"inactive"}
{"gene knocked down":"MsrA (Methionine sulfoxide reductase A)","reagent no.":1,"calcium signal, replicate 1":96.7,"calcium signal, replicate 2":165,"activity call":"inactive"}
{"gene knocked down":"primo-2 + primo-1","reagent no.":1,"calcium signal, replicate 1":137,"calcium signal, replicate 2":153,"activity call":"inactive"}
{"gene knocked down":"CG5515","reagent no.":1,"calcium signal, replicate 1":211,"calcium signal, replicate 2":206,"activity call":"inactive"}
{"gene knocked down":"CG15578","reagent no.":1,"calcium signal, replicate 1":250,"calcium signal, replicate 2":159,"activity call":"inactive"}
{"gene knocked down":"CG30076","reagent no.":1,"calcium signal, replicate 1":77.8,"calcium signal, replicate 2":92.4,"activity call":"inactive"}
{"gene knocked down":"Klp64D (Kinesin-like protein at 64D)","reagent no.":1,"calcium signal, replicate 1":123,"calcium signal, replicate 2":86.7,"activity call":"inactive"}
{"gene knocked down":"Axud1 (AXIN1 up-regulated 1)","reagent no.":1,"calcium signal, replicate 1":164,"calcium signal, replicate 2":169,"activity call":"inactive"}
{"gene knocked down":"Muc30E (Mucin 30E)","reagent no.":1,"calcium signal, replicate 1":199,"calcium signal, replicate 2":130,"retest calcium signal, replicate 1":6075,"retest calcium signal, replicate 2":132,"activity call":"inactive"}
{"gene knocked down":"hfw (halfway)","reagent no.":1,"calcium signal, replicate 1":76,"calcium signal, replicate 2":169,"activity call":"inactive"}
{"gene knocked down":"CG10621","reagent no.":1,"calcium signal, replicate 1":116,"calcium signal, replicate 2":126,"activity call":"inactive"}
{"gene knocked down":"cas (castor)","reagent no.":1,"calcium signal, replicate 1":120,"calcium signal, replicate 2":138,"activity call":"inactive"}
{"gene knocked down":"Ilp7 (Insulin-like peptide 7)","reagent no.":1,"calcium signal, replicate 1":190,"calcium signal, replicate 2":81.8,"activity call":"inactive"}
{"gene knocked down":"CG12521","reagent no.":1,"calcium signal, replicate 1":60.3,"calcium signal, replicate 2":73.8,"activity call":"inactive"}
{"gene knocked down":"sff (sugar-free frosting)","reagent no.":1,"calcium signal, replicate 1":158,"calcium signal, replicate 2":90,"activity call":"inactive"}
{"gene knocked down":"CG7183","reagent no.":1,"calcium signal, replicate 1":176,"calcium signal, replicate 2":265,"activity call":"inactive"}
{"gene knocked down":"Dop1R1 (Dopamine 1-like receptor 1)","reagent no.":1,"activity call":"inactive"}
{"gene knocked down":"Dop1R1 (Dopamine 1-like receptor 1)","reagent no.":2,"calcium signal, replicate 1":94.3,"calcium signal, replicate 2":111,"activity call":"inactive"}
{"gene knocked down":"CG33230","reagent no.":1,"calcium signal, replicate 1":128,"calcium signal, replicate 2":163,"activity call":"inactive"}
{"gene knocked down":"Drl-2 (Derailed 2)","reagent no.":1,"calcium signal, replicate 1":74,"calcium signal, replicate 2":97.9,"activity call":"inactive"}
{"gene knocked down":"Drl-2 (Derailed 2)","reagent no.":2,"calcium signal, replicate 1":79.1,"calcium signal, replicate 2":133,"activity call":"inactive"}
{"gene knocked down":"Drl-2 (Derailed 2)","reagent no.":3,"calcium signal, replicate 1":93.4,"calcium signal, replicate 2":123,"activity call":"inactive"}
{"gene knocked down":"CG34247","reagent no.":1,"calcium signal, replicate 1":91.8,"calcium signal, replicate 2":153,"activity call":"inactive"}
{"gene knocked down":"CG11634","reagent no.":1,"calcium signal, replicate 1":146,"calcium signal, replicate 2":90.5,"activity call":"inactive"}
{"gene knocked down":"Polr1C (RNA polymerase I and III subunit C)","reagent no.":1,"calcium signal, replicate 1":70.3,"calcium signal, replicate 2":124,"activity call":"inactive"}
